From article doi:10.1101/2020.03.12.989079
Changes are numbered by the printed parent chain. In names and notes the source's numbering stands. Like-named read-outs stand apart in the source and are kept apart here. These are yes or no findings as the source states them, for the method shown. For part of these data: In cells and extracts the contact can be indirect. Some results given as binding are weak or reduced against the parent protein; the word gives no strength. Where a sequence is shown, tags or fusion partners need not be part of it.

Legend:
[1] = biological target: T1, CYCA2;3 fused to the C-terminal half of Renilla reniformis luciferase (Arabidopsis thaliana) (UniProt Q38819); assay: split reporter
T1 sequence: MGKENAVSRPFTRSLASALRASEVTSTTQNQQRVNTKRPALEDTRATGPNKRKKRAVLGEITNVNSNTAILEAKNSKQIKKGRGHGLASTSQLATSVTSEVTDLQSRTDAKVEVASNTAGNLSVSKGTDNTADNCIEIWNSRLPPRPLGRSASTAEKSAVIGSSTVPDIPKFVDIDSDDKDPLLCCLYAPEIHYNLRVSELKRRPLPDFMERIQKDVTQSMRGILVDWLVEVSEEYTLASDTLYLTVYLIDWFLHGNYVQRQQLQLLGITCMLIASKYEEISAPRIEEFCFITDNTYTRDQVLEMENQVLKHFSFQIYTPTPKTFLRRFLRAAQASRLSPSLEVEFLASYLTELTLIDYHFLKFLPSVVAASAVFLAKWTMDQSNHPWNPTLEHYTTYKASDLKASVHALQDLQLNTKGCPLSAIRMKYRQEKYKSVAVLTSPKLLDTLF

[2] = biological target: T2, CYCD3;1 fused to the C-terminal half of Renilla reniformis luciferase (Arabidopsis thaliana) (UniProt P42753); assay: split reporter
T2 sequence: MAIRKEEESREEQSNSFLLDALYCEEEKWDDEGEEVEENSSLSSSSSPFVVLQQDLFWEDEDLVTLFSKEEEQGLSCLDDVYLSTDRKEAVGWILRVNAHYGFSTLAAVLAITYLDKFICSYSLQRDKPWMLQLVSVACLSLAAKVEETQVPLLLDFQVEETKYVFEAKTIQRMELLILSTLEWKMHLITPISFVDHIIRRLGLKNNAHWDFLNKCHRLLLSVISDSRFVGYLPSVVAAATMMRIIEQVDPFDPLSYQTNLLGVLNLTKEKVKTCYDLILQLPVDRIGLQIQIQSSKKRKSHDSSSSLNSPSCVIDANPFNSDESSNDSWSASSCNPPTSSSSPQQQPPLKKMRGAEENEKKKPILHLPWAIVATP

[3] = biological target: T3, CYCA2;3 in pASGW (GAL4 DNA-binding domain fusion) (Arabidopsis thaliana) (UniProt Q38819); assay: two-hybrid
T3 sequence: T1 sequence

[4] = biological target: T3, CYCA2;3 in pASGW (GAL4 DNA-binding domain fusion) (Arabidopsis thaliana); assay: two-hybrid; remark: listed apart in the source

B1: SIAMESE (SIM) fused to the N-terminal portion of Renilla reniformis luciferase (protein, UniProt Q9LZ78 1-127)
chain: MDLDLIQDLPILNFPPAIKIRANTNRDDDGGGCTTPTSSDHKIPPTTATTPPPPPQKPRPPSTPSSLGIRSCKRKLMTSLSKYEIIVNKDEIERFFSSVYNQTMASSTTTAITVAKRRRSFRSCSRR
In the case of B1, the binding [1] is reported as “binds” and the binding [2] is reported as “no binding”.

B2: SIAMESE (SIM), wild type, in pACTGW (GAL4 transcription activation domain fusion) (protein, UniProt Q9LZ78 1-127)
chain: B1 chain
For B2, the binding [3] was “binds” and the binding [4] was “binds”.

B3: SIM T35A (protein, UniProt Q9LZ78 1-127)
chain: B1 chain with T35A
B3 was tested, and the binding [4] was “no binding”.

B4: SIM T35D (protein, UniProt Q9LZ78 1-127)
chain: B1 chain with T35D
For B4, the binding [4] was “no binding”.
